These are yes or no findings as the source states them, for the method shown. Some entries that bind do so weakly or less than the wild type.
Assays:
[1] = biological target: Human recombinant RAGE (hrRAGE), soluble RAGE (human) (UniProt Q15109); test: SPR, sRAGE immobilized on a CM5 chip; HMGB1 (500 nM) injected before or after C1q (200 nM)
[2] = biological target: Human recombinant RAGE (hrRAGE), soluble RAGE (human) (UniProt Q15109); test: SPR and bead pull-down (legend of FIG. 3)
[3] = biological target: Human recombinant RAGE (hrRAGE), soluble RAGE (human) (UniProt Q15109); test: SPR (BIAcore T200), sRAGE immobilised on a CM5 chip, sequential multiple injections of HMGB1 500 nM and C1q 200 nM, both orders; in the left panel HMGB1 meets the sRAGE-C1q complex

Protein sequences, listed by entry. Tags and fused reporters are not part of them. Residues count along the entry.
UniProt Q15109, residues 24-344: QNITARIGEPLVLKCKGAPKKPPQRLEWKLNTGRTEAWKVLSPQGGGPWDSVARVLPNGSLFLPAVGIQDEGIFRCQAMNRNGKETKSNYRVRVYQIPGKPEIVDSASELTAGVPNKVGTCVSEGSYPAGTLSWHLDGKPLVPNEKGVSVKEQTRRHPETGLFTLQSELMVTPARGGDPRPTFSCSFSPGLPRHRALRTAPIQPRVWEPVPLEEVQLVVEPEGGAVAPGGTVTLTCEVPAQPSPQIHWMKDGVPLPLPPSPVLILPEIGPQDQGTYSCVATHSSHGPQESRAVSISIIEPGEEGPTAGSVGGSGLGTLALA
UniProt P09429: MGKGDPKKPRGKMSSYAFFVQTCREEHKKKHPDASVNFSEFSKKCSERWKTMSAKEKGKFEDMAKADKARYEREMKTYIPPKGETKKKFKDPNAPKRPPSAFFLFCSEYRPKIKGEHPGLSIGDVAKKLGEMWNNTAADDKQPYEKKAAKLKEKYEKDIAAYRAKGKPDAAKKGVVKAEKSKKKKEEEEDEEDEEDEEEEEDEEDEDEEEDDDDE

binding [1]: binds | binding [2]: binds | binding [3]: binds
Substance: Recombinant HMGB1 (Calmodulin Binding Protein Epitope, Cbp tagged) (from UniProt P09429 1-215) (ligand)
